Measurements reported in the M2OR odorant receptor database.
The list shows a part of the results, in another mix than the full data. Calls are pooled over several reports, among them a noisy single-well screen. Some of the results follow.

Chains of the proteins cited; added tags and fusions are not shown. Where a name states a change or a piece, a line headed by the entry shows the natural chain unless it says otherwise. Chains listed by the source or under a name are the forms on record and can include a tag or linker.
UniProt Q15612: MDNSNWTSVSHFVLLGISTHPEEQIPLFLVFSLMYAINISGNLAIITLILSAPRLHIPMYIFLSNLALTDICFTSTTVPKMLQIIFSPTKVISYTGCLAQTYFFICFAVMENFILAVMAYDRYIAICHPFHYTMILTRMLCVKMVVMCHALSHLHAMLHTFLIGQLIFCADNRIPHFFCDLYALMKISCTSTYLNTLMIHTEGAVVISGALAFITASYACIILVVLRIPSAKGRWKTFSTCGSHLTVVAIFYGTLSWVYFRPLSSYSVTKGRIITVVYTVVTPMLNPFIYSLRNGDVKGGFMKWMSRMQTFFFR
UniProt Q8NH92: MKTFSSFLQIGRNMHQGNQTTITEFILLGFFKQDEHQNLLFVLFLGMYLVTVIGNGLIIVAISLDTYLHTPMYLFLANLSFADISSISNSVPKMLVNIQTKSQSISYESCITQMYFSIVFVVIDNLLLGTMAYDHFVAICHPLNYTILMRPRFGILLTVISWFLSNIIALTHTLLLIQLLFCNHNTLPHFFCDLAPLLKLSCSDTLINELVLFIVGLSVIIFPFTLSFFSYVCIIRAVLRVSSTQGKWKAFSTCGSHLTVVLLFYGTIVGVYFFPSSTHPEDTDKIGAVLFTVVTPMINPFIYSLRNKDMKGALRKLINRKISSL
OR1N2, as listed by the source: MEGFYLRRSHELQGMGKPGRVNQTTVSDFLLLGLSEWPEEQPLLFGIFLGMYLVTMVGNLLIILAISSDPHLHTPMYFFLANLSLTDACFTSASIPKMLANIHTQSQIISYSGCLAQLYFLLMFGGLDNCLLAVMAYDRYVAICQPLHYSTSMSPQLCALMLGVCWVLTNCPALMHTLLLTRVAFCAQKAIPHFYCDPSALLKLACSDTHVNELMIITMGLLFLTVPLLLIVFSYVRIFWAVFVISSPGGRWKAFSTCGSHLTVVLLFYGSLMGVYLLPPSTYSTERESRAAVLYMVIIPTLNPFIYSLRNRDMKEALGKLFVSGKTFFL

Tests used:
Conditions in all cases: stereoisomer not certain
OR1L1 = tested on: T1, OR1L1
T1 sequence (whole entry): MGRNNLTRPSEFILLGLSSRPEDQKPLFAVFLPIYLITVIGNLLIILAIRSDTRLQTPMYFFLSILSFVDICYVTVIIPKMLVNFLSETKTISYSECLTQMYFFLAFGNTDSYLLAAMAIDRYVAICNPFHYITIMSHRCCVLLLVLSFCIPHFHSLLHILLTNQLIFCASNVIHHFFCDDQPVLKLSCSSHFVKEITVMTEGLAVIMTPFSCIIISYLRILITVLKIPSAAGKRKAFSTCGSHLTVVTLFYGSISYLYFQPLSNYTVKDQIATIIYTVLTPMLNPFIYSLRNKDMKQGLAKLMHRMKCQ
Procedure, shortened: (§1)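 Each entry records the cell line, G-protein, co-transfected protein and tags used. Methods varied with the source, often transient luciferase assays in mammalian cell lines. A receptor–molecule pair is called responsive (active) if the original authors judged its signal statistically different from baseline and non-responsive (inactive) otherwise.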

OR1L3 (Homo sapiens) = molecular target: T2, OR1L3 (Homo sapiens) (UniProt Q8NH93)
T2 sequence (whole entry): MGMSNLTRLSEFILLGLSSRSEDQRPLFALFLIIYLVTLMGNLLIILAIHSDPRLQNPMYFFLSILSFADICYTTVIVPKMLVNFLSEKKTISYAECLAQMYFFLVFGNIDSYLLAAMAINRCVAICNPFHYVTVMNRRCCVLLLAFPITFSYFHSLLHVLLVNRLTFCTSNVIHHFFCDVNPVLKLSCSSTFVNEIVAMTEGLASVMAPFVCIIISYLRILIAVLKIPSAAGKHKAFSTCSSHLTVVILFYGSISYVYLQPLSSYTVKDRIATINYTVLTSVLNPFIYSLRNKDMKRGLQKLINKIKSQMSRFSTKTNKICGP
Procedure, shortened: as §1

OR1L4 = tested on: T3, OR1L4
T3 sequence (whole entry): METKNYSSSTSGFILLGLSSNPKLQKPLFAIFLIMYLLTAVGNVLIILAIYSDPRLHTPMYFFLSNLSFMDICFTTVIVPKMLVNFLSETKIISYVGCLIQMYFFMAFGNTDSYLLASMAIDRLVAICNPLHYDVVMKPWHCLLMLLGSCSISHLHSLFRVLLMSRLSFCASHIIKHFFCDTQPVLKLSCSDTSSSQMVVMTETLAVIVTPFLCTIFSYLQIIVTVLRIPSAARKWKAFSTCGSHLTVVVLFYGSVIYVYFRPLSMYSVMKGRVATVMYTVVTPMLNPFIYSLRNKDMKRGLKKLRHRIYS
Procedure, shortened: as §1

OR1L6 = tested on: T4, OR1L6
T4 sequence (whole entry): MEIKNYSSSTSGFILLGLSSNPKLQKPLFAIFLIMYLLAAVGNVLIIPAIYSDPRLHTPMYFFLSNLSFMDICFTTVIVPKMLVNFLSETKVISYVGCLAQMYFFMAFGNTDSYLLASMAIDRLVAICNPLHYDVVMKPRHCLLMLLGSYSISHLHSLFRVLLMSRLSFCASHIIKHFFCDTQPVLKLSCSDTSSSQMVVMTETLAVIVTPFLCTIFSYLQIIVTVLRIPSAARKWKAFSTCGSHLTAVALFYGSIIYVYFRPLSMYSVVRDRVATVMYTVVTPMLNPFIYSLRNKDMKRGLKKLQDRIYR
Procedure, shortened: as §1

OR1L8 (Homo sapiens) = molecular target: T5, OR1L8 (Homo sapiens) (UniProt Q8NGR8)
T5 sequence (whole entry): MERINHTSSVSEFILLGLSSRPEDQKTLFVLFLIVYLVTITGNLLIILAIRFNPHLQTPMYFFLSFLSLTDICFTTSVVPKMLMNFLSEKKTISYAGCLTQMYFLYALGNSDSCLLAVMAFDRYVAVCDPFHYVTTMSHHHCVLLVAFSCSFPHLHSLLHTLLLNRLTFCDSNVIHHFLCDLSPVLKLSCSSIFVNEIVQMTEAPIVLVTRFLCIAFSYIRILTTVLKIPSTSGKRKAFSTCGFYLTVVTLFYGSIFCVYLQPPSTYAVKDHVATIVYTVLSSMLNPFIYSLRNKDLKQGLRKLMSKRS
Procedure, shortened: as §1

OR1M1 = tested on: T6, OR1M1
T6 sequence (whole entry): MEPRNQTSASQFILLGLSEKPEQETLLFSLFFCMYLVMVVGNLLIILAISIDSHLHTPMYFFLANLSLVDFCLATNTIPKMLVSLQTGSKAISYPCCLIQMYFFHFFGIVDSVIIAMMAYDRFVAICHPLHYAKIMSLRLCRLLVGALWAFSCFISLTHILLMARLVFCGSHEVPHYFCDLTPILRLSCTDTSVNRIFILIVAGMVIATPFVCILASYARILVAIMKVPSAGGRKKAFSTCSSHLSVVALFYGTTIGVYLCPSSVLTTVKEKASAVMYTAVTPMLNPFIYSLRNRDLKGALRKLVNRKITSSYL
Procedure, shortened: as §1

OR1N1 (Homo sapiens) = molecular target: T7, OR1N1 (Homo sapiens) (UniProt Q8NGS0)
T7 sequence (whole entry): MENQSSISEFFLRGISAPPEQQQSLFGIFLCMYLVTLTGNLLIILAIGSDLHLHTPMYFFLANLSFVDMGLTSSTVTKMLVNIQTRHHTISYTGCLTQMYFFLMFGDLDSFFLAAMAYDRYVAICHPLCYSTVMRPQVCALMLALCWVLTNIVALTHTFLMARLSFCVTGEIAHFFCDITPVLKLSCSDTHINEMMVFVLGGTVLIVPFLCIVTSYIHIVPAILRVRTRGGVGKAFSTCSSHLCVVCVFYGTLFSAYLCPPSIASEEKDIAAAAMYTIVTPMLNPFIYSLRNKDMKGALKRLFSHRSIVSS
Procedure, shortened: as §1

OR1N2 (Homo sapiens) = molecular target: T8, OR1N2 (Homo sapiens) (UniProt Q8NGR9)
T8 sequence (whole entry): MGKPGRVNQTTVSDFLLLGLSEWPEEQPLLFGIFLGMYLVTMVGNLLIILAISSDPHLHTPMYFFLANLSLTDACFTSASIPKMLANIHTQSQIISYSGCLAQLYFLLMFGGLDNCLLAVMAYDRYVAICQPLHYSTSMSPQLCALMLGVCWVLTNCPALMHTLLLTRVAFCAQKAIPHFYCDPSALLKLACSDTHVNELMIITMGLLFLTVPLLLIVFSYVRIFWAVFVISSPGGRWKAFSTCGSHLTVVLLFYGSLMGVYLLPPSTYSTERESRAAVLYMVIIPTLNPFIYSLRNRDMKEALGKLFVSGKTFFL
Procedure, shortened: as §1

OR1N2 [1] = tested on: T9, OR1N2
T9 sequence (whole entry): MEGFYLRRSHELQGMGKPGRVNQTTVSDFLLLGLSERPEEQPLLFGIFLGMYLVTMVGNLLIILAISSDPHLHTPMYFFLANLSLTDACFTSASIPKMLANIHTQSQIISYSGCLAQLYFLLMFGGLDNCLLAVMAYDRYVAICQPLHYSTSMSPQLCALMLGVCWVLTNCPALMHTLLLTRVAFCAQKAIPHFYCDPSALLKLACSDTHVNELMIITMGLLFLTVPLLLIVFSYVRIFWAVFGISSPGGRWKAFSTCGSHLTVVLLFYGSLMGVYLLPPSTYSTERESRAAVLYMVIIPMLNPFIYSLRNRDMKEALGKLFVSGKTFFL
Procedure, shortened: as §1

OR1Q1 = tested on: T10, OR1Q1
T10 sequence (whole entry): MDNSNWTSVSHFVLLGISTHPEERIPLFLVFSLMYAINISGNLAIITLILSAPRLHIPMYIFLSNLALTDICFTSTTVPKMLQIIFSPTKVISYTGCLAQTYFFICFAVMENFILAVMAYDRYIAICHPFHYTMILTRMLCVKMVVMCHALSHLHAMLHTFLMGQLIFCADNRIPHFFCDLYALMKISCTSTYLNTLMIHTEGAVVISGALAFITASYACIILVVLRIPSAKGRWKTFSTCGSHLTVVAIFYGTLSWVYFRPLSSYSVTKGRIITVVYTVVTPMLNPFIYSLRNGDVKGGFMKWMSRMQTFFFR
Procedure, shortened: as §1

OR1S1 = tested on: T11, OR1S1
T11 sequence (whole entry): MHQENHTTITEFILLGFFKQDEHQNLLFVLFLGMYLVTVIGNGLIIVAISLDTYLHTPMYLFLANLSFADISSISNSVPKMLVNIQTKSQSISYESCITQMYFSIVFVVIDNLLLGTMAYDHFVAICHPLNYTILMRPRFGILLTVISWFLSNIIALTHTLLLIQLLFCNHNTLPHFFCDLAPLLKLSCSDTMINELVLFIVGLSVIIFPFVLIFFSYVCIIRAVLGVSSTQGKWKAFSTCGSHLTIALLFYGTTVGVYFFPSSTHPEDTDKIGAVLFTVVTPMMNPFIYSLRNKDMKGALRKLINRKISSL
Procedure, shortened: as §1

OR1S2 = tested on: T12, OR1S2
T12 sequence (whole entry): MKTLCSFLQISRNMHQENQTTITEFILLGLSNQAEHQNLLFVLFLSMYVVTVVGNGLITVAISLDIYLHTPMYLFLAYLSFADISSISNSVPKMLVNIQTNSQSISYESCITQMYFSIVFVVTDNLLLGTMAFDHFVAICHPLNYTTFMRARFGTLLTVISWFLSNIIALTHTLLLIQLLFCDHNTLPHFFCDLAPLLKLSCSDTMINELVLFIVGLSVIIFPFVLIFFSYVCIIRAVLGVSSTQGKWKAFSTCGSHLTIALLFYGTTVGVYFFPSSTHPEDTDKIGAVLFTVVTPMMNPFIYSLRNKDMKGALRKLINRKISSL
Procedure, shortened: as §1

OR2A12 (Homo sapiens) = molecular target: T13, OR2A12 (Homo sapiens) (UniProt Q8NGT7)
T13 sequence (whole entry): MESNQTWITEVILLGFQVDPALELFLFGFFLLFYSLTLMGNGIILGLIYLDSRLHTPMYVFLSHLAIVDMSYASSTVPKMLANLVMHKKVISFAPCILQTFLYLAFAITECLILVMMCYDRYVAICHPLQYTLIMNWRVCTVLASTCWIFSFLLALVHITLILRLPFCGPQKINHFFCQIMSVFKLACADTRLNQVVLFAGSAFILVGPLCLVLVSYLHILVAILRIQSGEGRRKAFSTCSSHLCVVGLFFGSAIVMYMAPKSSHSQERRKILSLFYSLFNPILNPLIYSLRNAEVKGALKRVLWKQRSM
Procedure, shortened: as §1

OR2A1 (Homo sapiens) = molecular target: T14, OR2A1 (Homo sapiens) (UniProt Q8NGT9)
T14 sequence (whole entry): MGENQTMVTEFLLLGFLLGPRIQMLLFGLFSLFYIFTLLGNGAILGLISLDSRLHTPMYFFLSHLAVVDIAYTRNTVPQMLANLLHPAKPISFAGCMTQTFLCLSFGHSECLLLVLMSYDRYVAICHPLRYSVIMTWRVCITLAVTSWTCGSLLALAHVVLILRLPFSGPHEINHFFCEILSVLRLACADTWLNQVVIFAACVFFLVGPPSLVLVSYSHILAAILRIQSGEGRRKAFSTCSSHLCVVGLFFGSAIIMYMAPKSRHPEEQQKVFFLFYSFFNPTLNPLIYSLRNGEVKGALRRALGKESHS
Procedure, shortened: as §1

OR1L4 (Homo sapiens) = OR1L4 (Homo sapiens) (UniProt Q8NGR5)
Procedure, shortened: as §1

OR1M1 (Homo sapiens) = OR1M1 (Homo sapiens) (UniProt Q8NGA1)
Procedure, shortened: as §1

OR1N2 [2] = tested on: OR1N2; remark: listed apart in the source
Procedure, shortened: as §1

OR1Q1 (Homo sapiens) = OR1Q1 (Homo sapiens) (UniProt Q15612)
Procedure, shortened: as §1

OR1S1 (Homo sapiens) = OR1S1 (Homo sapiens) (UniProt Q8NH92)
Procedure, shortened: as §1

OR1S2 (Homo sapiens) = OR1S2 (Homo sapiens) (UniProt Q8NGQ3)
Procedure, shortened: as §1

Measured: odorant receptor agonist call

CC1=CCC(C(C)(C)O)CC1 (stereo unspecified)
not listed: OR2A1 (Homo sapiens) | OR1L4 (Homo sapiens) | OR1M1 (Homo sapiens) | OR1N2 [2] | OR1Q1 (Homo sapiens) | OR1S1 (Homo sapiens) | OR1S2 (Homo sapiens)
inactive: all other assays above

CCCC(=O)O
active: OR1S1
not listed: OR1L4 (Homo sapiens) | OR1M1 (Homo sapiens) | OR1N2 [2] | OR1Q1 (Homo sapiens) | OR1S1 (Homo sapiens) | OR1S2 (Homo sapiens)
inactive: all other assays above

CCCCCCCCCC=O
not listed: OR2A1 (Homo sapiens) | OR1L4 (Homo sapiens) | OR1M1 (Homo sapiens) | OR1N2 [2] | OR1Q1 (Homo sapiens) | OR1S1 (Homo sapiens) | OR1S2 (Homo sapiens)
inactive: all other assays above

C=CC(C)(O)CCC=C(C)C (stereo unspecified)
active: OR1N2 (Homo sapiens) | OR1N2 [1]
not listed: OR1L4 (Homo sapiens) | OR1M1 (Homo sapiens) | OR1N2 [2] | OR1Q1 (Homo sapiens) | OR1S1 (Homo sapiens) | OR1S2 (Homo sapiens)
inactive: all other assays above

CC12C=CCC1C1CCC3CC(=O)CCC3(C)C1CC2 (stereo unspecified)
active: OR1M1 | OR1S2
not listed: OR2A1 (Homo sapiens)
inactive: all other assays above

CC(C)(C)c1ccc(CCC=O)cc1
not listed: OR2A1 (Homo sapiens) | OR1L4 (Homo sapiens) | OR1M1 (Homo sapiens) | OR1N2 [2] | OR1Q1 (Homo sapiens) | OR1S1 (Homo sapiens) | OR1S2 (Homo sapiens)
inactive: all other assays above
